Binding data for 14 molecules are collected here from US20250074997A1 (PERSONGEN BIOTHERAPEUTICS SUZHOU, published 2025).

The chains behind the UniProt entries cited, without tags or fusion partners. Where a name states a change or a piece, a line headed by the entry shows the natural chain unless it says otherwise. Residues count along the entry.
UniProt Q03405: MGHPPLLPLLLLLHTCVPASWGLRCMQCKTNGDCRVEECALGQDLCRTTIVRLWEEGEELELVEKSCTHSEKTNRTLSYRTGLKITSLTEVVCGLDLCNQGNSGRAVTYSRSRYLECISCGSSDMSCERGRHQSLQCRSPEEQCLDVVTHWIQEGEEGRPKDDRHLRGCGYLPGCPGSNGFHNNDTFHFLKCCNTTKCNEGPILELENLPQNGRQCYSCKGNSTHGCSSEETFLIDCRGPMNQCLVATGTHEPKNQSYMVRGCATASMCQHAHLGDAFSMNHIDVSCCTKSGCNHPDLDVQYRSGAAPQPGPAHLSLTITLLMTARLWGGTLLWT
UPAR on CHO-S/UPAR cells: residues 23-305 of Q03405

No constants are given. Whether binding was seen depends on the method and setting. Some results given as binding are weak or reduced against the parent protein; the word gives no strength.

For one test, the target named is UPAR on CHO-S/UPAR cells (UniProt Q03405). Kind of test: flow cytometry on CHO-S/UPAR and parental CHO-S cells, purified antibody, PE-anti-human IgG. In general terms: Flow cytometry measures light scatter and fluorescence of single cells or particles in a stream.
In test [1] the target is T1, UPAR-His recombinant protein (UniProt Q03405 23-303).
T1 construct: range 23-303; Expressed in 293 cells, purified on Ni-NTA; Biotinylated in the uPA ELISA; also called UPAR-His antigen; biotinUPAR-His; not shown: C-terminal His tag
Kind of test: SPR (BiaCore T200), UPAR recombinant protein immobilised on CM5 chip.

B1: pcDNA3.4-SDAB20-7-26-2-1-B4-hFC (Fc fusion, not shown: a dimerising Fc or GST)
chain: QVQLVESGGGLVQPGGSLRLSCAASGFTLDYYAIGWFRQAPGKEREGVSCISSTGGSTNYADSVKGRFTISRDNAKNTVYLQMNSLKPEDTAVYYCAADTHYLTVCYDRLGFDYWGQGTQVTVSS
As for B1, in the test with UPAR on CHO-S/UPAR cells, the binding result is reported as “binds”.

B2: pcDNA3.4-SDAB20-7-26-2-3-E04-hFC (Fc fusion)
chain: QLRLVESGGGLVQPGGSLRLSCAASGFTLDYYDIGWFRQAPGKEREGVSCIGRISGDTDYAESVKGRFTASRDNAKNTVYLQMNSLKPEDTAVYYCAAERRFFGGGCRRSVDNMDSWGKGTLVTVSS
notes: Llama VHH fused in tandem with human IgG1 Fc, expressed in 293 cells, purified on protein A; not shown: human IgG1 Fc from vector pcDNA3.4-hIgG1-Fc2
For the molecule B2, the binding result (in test [1]; in the test with UPAR on CHO-S/UPAR cells) was “binds” throughout.

B3: pcDNA3.4-SDAB20-7-26-2-1-G1-hFC (Fc fusion, not shown: a dimerising Fc or GST)
chain: QVQLVESGGGLVQPGGSLRLSCAASGNSLRRYAIGWFRQAPGKEREGVVCISTVGGSSYYVDSVKGRFTISEDNVKNTAYLQMNSLEPEDTAVYYCAAANRLYCPAYGSAGYDYWGQGTQVTVSS
On to B3, for which the binding result with UPAR on CHO-S/UPAR cells is recorded as “binds”.

B4: pcDNA3.4-SDAB20-7-26-2-3-E03-hFC (Fc fusion, not shown: a dimerising Fc or GST)
chain: AVQLVDSGGGLVQAGGSLRLSCAASGIRLSSNAMAWYRQAPGKQRGLVALITSDGTTNYVDSVKGRFTISRDNAKNTVYLQMNSLKPEDTAVYYCKREPYLSTRGYWGQGTQVTVSS
For the molecule B4, in the test with UPAR on CHO-S/UPAR cells, the binding result is on record as “binds”.

B5: pcDNA3.4-SDAB20-7-26-2-1-F10-hFC (Fc fusion, not shown: a dimerising Fc or GST)
chain: QVQLVESGGGLVQPGGSLRLSCAASGSILSIRAVGWYRQAPGKQRELVALITSDGTTHYALSVKGRFTISRDNAKTTVYLQMNSLKPEDTAVYYCNREDYARRYWGQGTQVTVSS
As to B5, the binding result in the test with UPAR on CHO-S/UPAR cells is listed as “binds”.

B6: pcDNA3.4-SDAB20-7-26-2-1-G2-hFC (Fc fusion, not shown: a dimerising Fc or GST)
chain: QSQLAESGGGLVQPGGSLRLSCVASRFSLDAYAIAWFRQAPGKEREGVSCISSIGGRTNYADPVKGRFTISRDNAKNTAYLEMNSLQPEDTAVYYCAAVQRLFGPCLLSGGMDYWGKGTPVTVSS
Consider B6, for which the binding result in the test with UPAR on CHO-S/UPAR cells is given as “binds”.

B7: pcDNA3.4-SDAB20-7-26-2-3-H02-hFC (Fc fusion)
chain: QLTLVESGGGLVQPGGSLRLSCAASEFTLDYYAIGWFRQAPGKEREGVSCISSSDGSTYYADSVKGRFTISRDNAKNTVYLQMNSLKPEDTAVYYCAIGGLLLLRLWERGNYEFDYWGQGTQVTVSS
notes: as for B2
With B7, the binding result (in test [1]; in the test with UPAR on CHO-S/UPAR cells) was “binds” throughout.

B8: pcDNA3.4-SDAB20-7-26-2-1-H8-hFC (Fc fusion, not shown: a dimerising Fc or GST)
chain: QRQLVESGGGLVQPGGSLRLSCAVSEFTLDYYAIGWFRQAPGKEREGVSCISSSGGSTVYADSVKGRFTISADNAKNTVYLQMNSLKPEDTAVYYCAAGSLLLFRLCVSRLYEYDYWGQGTQVTVSS
With B8, in the test with UPAR on CHO-S/UPAR cells, the binding entry is given as “binds”.

B9: pcDNA3.4-SDAB20-7-26-2-1-F1-hFC (Fc fusion, not shown: a dimerising Fc or GST)
chain: EVQLAESGGGLVQPGGSLRLSCAASGFTFSSYTMSWVRQAPGKGLEWVSAIDSDGGVTSYADSVKGRFTISRDNAKNTLYLQMNSLKPEDTAVYYCANGGYCSGYGCYPRLLSQGTLVTVSS
B9: the binding entry with UPAR on CHO-S/UPAR cells is “binds”.

B10: pcDNA3.4-SDAB20-7-26-2-3-E06-hFC (Fc fusion, not shown: a dimerising Fc or GST)
chain: EVQLVESGGGLVQAGGSLTLSCVASASGSILRLNAMGWYRQAPAKQRELVALITRDGSTNYPDSVKGRFTISRDNAKNTVYLQMSSLSPEDTAVYYCYVQNHYSNYWGQGTQVTVSS
As to B10, the binding entry in the test with UPAR on CHO-S/UPAR cells is “binds”.

B11: pcDNA3.4-SDAB20-7-26-2-3-G07-hFC (Fc fusion, not shown: a dimerising Fc or GST)
chain: RLQLVESGGGLVQPGGSLRLSCAVSGKALDYYSIGWFRQAPRKQREGVSCISSSGGSTNYADSVKGRFTISRDNAKDTVYLQMNSLKPEDTADYYCAVVSTVLCGLGIYEYDYWGQGTLVTVSS
In the case of B11, the binding result with UPAR on CHO-S/UPAR cells is given as “binds”.

B12: pcDNA3.4-SDAB20-7-26-2-3-E09-hFC (Fc fusion, not shown: a dimerising Fc or GST)
chain: AVQLVDSGGGLVQPGGSLRLSCAASGFTFSSYAMGWARQVPGKGLEWVSIIYRDGNTYYTDSVKGRFTISRDNAKNTVYLQMNSLKPEDTAVYYCAPVETVAARRRDYWGQGTQVNVSS
B12: the binding result with UPAR on CHO-S/UPAR cells is recorded as “binds”.

B13: pcDNA3.4-SDAB20-7-26-2-3-E10-hFC (Fc fusion, not shown: a dimerising Fc or GST)
chain: AVQLVDSGGGLVQPGGSLRLSCAASGFTFSSYAMGWARQVPGKGLEWVSIIYRDGNTYYTDSVKGRFTISRDNAKNTVYLQMNSLKPEDTAVYYCAPVETVAARRRDYWGQGTQVNVSS
Turning to B13, the binding result with UPAR on CHO-S/UPAR cells was “binds”.

B14: pcDNA3.4-SDAB20-7-26-2-1-F9-hFC (Fc fusion)
chain: QSLLVESGGGLVQPGGSLRLSCAASGFSLDYYAIGWFRQAPGKEREEVSCISSGGGSTNYADSVKGRFTISRDNAKNTVYLQMNSLKPEDTAVYYCAAKRNFMLYLVQCPYEYDYWGQGTQVTVSS
notes: also called 1-F09; not shown: human IgG1 Fc from vector pcDNA3.4-hIgG1-Fc2
Regarding B14, the binding result (in test [1]; with UPAR on CHO-S/UPAR cells) was “binds” in each case.
